Among all 1,600 compounds or so, about 20 (1%) were called active.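 The calls were made as follows: active = ratio of uncleaved NAD to its breakdown product ADP-ribose above 4, meaning the enzyme was inhibited; inactive = the rest.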 Some of the results follow.
Molecular target: NAD(+) hydrolase SARM1 (Homo sapiens) (UniProt Q6SZW1)
Assay: SARM1 TIR NADase inhibitors by HPLC, primary screen, cell lysate, HPLC readout (AID 1508615);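 also: substrate NAD at 5 µM with 60 min at 37 °C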
Conditions: HEK293T SAM-TIR lysate, at 5 µM, active compounds read high

Chains of the proteins cited; added tags and fusions are not shown. Lines headed by an entry give the natural chain unless they say otherwise; changes in a name come on top.
UniProt Q6SZW1: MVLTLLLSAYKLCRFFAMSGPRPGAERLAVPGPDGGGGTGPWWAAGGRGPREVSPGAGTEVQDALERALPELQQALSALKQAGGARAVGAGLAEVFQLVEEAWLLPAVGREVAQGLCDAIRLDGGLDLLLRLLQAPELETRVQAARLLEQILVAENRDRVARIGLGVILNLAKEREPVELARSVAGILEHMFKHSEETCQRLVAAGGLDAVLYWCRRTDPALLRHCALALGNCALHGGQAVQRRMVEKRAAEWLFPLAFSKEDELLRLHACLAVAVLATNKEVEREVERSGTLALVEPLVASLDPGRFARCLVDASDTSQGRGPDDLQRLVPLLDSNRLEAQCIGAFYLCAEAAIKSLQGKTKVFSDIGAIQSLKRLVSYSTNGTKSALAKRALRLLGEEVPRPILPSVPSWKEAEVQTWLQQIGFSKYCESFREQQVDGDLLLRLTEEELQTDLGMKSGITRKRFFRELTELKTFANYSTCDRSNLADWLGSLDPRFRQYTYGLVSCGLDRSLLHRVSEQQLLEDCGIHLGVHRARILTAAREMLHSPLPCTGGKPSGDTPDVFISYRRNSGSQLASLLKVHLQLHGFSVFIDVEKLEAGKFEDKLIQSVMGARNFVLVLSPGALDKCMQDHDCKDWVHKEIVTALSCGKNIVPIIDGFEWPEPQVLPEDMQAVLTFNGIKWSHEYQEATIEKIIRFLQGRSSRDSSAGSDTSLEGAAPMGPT

NAD/ADPR ratio, inactive:
CC(C)=CCC/C(C)=C/C(N)=O 3
CCOP(=O)(OCC)/C(C#N)=C/c1ccc([N+](=O)[O-])cc1 3
c1ccc(-c2nnc3oc(-c4cccs4)nn23)cc1 3
C=C(C)CN1C(=O)C(C)S/C1=N\N=C1/SCC(=O)N1C (centres undefined) 3
O=C(CC1C=Cc2ccccc2N1C(=O)c1ccccc1)c1ccccc1 (centres undefined) 3
S=c1[nH]c2ccccc2c2ccccc12 3
Cc1cc(=O)n2[nH]c(-c3ccc(C(C)(C)C)cc3)cc2n1 3
CCc1nc(NC(C)(C)C)c2cnn(-c3ccccc3)c2n1 3
O=C(O)c1ccccc1C(=O)Nc1cccc([N+](=O)[O-])c1 3
Nc1ccccc1Sc1cc(Cl)nnc1Cl 3
Clc1c(Cl)c(Cl)c2n[nH]nc2c1Cl 3
c1ccc2c(c1)nnn2-c1ccncc1 3
CC(=O)Nc1ccc2cc3ccc(NC(C)=O)cc3nc2c1 3
Cc1nnsc1C(=O)NCc1c(F)cccc1Cl 3
NCC(=O)Nc1ccc(Cl)cc1C(=O)c1ccc[nH]1 3
O=C(O)c1cc(N2C(=O)C=CC2=O)cc(N2C(=O)C=CC2=O)c1 3
CCOc1ccc(/C=C2\CCc3ccccc3C2=O)cc1 3
CSc1ncc2[nH]c(C(O)c3ccccc3)nc2n1 (centres undefined) 3
Oc1ccc2c(ccc3[nH]cnc32)c1 3
CCOC(=O)Nc1ccc2nc(-c3cscn3)[nH]c2c1 3
CCOC(=O)c1c[nH][nH]c1=O 3
Oc1ccc(Cc2ccccc2Cl)c(O)c1 3
O=C(Nc1ccc(F)cc1)Oc1ccc[nH]c1=O 3
c1ccc(-n2nnnc2-c2cccc3ccccc23)cc1 3
Cn1cnc([N+](=O)[O-])c1S(=O)(=O)Oc1cccc2ccccc12 3
CCCCNCC1CCCO1 (centres undefined) 3
Oc1ccccc1-c1nnco1 3
O=C1c2ccccc2C(=O)c2c(Nc3ccc(CCO)cc3)ccc(O)c21 3
Oc1c(CN2CCN(c3ccccc3)CC2)cc(Br)c2cccnc12 3
CC(C)N(C(=O)c1cccc([N+](=O)[O-])c1)C(C)C 3
Nc1ncnc2c1ncn2C1OC(CO)C(O)C1N (centres undefined) 3
Oc1c(Cl)cc(Cl)cc1C1Nc2ccccc2-n2cccc21 (centres undefined) 3
CCC(C)(C)c1ccc(Oc2cccc(C(=O)O)c2)cc1 3
CCc1cccc2[nH]c3cc([N+](=O)[O-])ccc3c12 3

Entries above with fluorine:
NAD/ADPR ratio, inactive:
Cc1nnsc1C(=O)NCc1c(F)cccc1Cl 3
O=C(Nc1ccc(F)cc1)Oc1ccc[nH]c1=O 3
